# Measurements from patent publication US6689749B1, “Neuropeptides originating in scorpion” (Suntory Limited, priority 1996, dated 2004).
# Sequences of proteins named here, by UniProt entry; tags and fusion partners are left off.
# UniProt P15384, whole entry: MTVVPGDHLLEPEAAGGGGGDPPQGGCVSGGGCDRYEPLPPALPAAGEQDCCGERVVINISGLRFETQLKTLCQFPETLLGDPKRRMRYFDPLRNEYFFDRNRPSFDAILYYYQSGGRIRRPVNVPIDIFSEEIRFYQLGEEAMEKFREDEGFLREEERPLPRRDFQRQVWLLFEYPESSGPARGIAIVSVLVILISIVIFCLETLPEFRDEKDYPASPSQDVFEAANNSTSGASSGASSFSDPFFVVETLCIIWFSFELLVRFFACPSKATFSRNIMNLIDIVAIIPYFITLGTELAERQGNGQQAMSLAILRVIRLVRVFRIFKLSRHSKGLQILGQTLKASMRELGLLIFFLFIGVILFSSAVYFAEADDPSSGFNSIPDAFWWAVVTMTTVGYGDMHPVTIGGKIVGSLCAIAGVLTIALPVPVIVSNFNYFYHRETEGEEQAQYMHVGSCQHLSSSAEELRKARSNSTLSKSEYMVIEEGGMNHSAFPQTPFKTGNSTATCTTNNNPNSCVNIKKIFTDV
# At least one compound was matched to its structure with a doubt left.
# Biological target: T1, rat brain voltage-gated K+ channel, Kv1.3 (Rattus norvegicus, UniProt P15384)
# T1 construct: expressed in transfected cells; host or cells: Xenopus oocytes (cRNA injection; pAS18 vector, SP6 transcription; clone from Prof; O. Pongs)
# Assay: Assay of K+ channel inhibition: two-electrode voltage clamp of Kv1.3 expressed in Xenopus oocytes
# Assay type: cell-based
# Conditions: rat Kv1.3 in Xenopus oocytes, about 22° C.; read-out: 50% blocking/inhibition concentration (IC50) on Kv1.3 channels
# Protocol: Assay on inhibitory activity of the peptides on K^+ channels was performed in the following manner. The gene of the rat brain voltage-gated K^+ channel, Kv1.3 (Stuhmer et al., EMBO J., 8, vol. 11, pp. 3235-3244, 1988), which was graciously contributed by Prof. O. Pongs (Institute für Neurale Signalverarbeitung, Hamburg, Germany) was inserted into pAS18 vector according to a conventional technique. This vector was treated with EcoRI and then the resultant clone was transcribed in vitro with SP6 RNA polymerase using a transcription kit (Stratagene Inc., USA). The cRNA obtained was injected into Xenopus oocytes 16-72 hr prior to electrophysiological experiments.
# The oocytes which had been expressed the Kv1.3 gene were added to a 100 μl-chamber filled with an ND96 solution (0.3 mM CaCl2, 1 mM MgCl2, 2 mM KCl and 96 mM NaCl in 5 mM Hepes buffer, pH 7.6) supplemented with 50 mg/ml of bovine serum albumin (BSA), and the ND96 solution was continuously perfused through reservoirs at a flow rate of 4 ml/min. The sample to be tested was separately dissolved to an ND96 solution and then added to the chamber by perfusion through a reservoir. The switching from one reservoir to another for each experiment was performed by means of Teflon valves. All measurements were made at room temperature (about 22° C.). […]
structure (smiles),measurement,value
CSCC[C@@H]1NC(=O)[C@@H]2CSSC[C@H](NC(=O)[C@H](CO)NC(=O)[C@H](C)N)C(=O)N[C@@H](CCCNC(=N)N)C(=O)N[C@@H]([C@@H](C)O)C(=O)N3CCC[C@H]3C(=O)N[C@@H](CCCCN)C(=O)N[C@@H](CC(=O)O)C(=O)N[C@H]3CSSC[C@H](NC(=O)[C@H](CCCCN)NC(=O)[C@H](CCCNC(=N)N)NC(=O)[C@H](CC(N)=O)NC1=O)C(=O)N[C@@H](CCCCN)C(=O)N[C@H]1CSSC[C@H](NC(=O)[C@@H]4CCCN4C(=O)[C@H](CC(=O)O)NC(=O)[C@H](C)NC3=O)C(=O)N[C@@H](CCCNC(=N)N)C(=O)N[C@@H](CCCCN)C(=O)N[C@@H](CCC(=O)O)C(=O)N[C@@H]([C@@H](C)O)C(=O)NCC(=O)N[C@@H](CSSC[C@@H](C(=O)O)NC(=O)[C@H](CCCNC(=N)N)NC(=O)[C@H](CC(N)=O)NC1=O)C(=O)N1CCC[C@H]1C(=O)N[C@@H](Cc1ccc(O)cc1)C(=O)NCC(=O)N[C@@H](CCCCN)C(=O)N2 [HsTX1-COOH],IC50,0.069 nM
